Measurements as given in PMC11395002.
The exact form of at least one protein or probe is not confirmed.

System: SlHB8-GST (Solanum lycopersicum)
Test: EMSA
Conditions: biotin probe, cold competitor 5x and 20x; Thermo EMSA kit; pH and temperature not stated; recombinant protein; protein details: GST (pGEX4T1); label: biotin (unlabeled as cold competitor)

GTCTATATTCAATCATTGTTATGCTATATGC (double strand) [SlDYT1 promoter BS probe, wild type]
binding result: binds
